Patent US9409865B2, “Modulators of methyl modifying enzymes, compositions and uses thereof” (Constellation Pharmaceuticals, Inc., priority 2011, dated 2016)
The structures given here were assigned with low confidence; some may be wrong.

Sequences of proteins named here, by UniProt entry; tags and fusion partners are left off. A change or cut given only in a name is not applied to a line headed by its entry.
UniProt Q15910, whole entry: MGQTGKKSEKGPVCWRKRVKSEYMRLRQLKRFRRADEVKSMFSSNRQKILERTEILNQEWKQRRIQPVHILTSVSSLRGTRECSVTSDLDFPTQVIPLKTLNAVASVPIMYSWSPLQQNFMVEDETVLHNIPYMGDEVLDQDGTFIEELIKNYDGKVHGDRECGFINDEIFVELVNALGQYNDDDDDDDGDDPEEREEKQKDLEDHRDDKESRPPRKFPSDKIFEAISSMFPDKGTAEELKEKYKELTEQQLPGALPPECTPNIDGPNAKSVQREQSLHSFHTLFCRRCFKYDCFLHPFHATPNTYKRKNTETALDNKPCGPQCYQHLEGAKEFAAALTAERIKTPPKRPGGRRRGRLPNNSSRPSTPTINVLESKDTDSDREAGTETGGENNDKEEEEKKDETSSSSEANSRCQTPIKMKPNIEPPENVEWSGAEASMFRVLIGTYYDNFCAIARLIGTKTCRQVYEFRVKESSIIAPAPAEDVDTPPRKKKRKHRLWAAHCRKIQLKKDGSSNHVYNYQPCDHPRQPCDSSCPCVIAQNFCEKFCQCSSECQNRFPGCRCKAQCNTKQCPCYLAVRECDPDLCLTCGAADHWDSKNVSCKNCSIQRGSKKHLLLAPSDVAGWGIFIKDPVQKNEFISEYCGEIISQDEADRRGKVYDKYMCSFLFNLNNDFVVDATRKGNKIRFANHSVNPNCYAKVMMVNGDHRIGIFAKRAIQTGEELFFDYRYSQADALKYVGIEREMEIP
UniProt Q15910, whole entry Y641N: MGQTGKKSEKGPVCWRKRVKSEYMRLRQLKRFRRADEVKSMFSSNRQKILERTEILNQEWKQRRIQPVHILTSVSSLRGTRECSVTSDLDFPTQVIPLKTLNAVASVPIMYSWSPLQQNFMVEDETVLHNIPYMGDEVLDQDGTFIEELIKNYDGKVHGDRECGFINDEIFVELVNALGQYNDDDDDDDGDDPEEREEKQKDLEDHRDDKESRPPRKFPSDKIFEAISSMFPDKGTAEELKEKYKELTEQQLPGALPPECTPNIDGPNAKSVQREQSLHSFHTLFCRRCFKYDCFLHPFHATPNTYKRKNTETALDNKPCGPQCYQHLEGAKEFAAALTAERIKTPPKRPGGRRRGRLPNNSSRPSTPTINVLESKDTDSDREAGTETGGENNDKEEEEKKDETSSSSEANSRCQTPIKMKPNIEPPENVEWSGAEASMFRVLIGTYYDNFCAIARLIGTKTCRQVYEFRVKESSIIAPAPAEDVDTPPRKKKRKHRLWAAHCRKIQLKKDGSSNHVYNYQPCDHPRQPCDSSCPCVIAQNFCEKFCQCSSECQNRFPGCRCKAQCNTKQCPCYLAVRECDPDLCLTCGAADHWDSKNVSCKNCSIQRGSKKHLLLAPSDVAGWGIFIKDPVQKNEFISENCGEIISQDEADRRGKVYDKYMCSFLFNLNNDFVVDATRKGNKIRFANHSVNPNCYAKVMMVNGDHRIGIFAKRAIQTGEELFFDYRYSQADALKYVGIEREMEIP
UniProt Q15022, whole entry partner: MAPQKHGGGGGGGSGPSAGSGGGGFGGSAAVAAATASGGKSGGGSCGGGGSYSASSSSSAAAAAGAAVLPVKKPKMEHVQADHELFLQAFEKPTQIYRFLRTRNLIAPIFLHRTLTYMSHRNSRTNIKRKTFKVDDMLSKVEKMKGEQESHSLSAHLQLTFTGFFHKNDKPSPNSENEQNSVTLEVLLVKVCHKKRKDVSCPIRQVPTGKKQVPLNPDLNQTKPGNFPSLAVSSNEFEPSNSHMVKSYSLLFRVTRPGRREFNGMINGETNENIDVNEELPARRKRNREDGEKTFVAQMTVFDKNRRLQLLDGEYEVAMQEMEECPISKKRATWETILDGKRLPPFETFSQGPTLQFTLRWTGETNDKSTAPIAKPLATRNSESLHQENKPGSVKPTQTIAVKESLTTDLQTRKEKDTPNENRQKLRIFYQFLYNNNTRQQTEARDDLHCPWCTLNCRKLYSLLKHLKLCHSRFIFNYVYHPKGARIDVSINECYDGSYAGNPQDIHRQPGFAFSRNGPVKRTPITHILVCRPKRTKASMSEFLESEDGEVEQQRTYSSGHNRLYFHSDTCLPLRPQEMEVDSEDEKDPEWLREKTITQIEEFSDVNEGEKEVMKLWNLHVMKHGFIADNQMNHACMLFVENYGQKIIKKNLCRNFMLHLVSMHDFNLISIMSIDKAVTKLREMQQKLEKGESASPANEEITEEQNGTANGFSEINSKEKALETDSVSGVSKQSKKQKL
UniProt O75530, whole entry partner: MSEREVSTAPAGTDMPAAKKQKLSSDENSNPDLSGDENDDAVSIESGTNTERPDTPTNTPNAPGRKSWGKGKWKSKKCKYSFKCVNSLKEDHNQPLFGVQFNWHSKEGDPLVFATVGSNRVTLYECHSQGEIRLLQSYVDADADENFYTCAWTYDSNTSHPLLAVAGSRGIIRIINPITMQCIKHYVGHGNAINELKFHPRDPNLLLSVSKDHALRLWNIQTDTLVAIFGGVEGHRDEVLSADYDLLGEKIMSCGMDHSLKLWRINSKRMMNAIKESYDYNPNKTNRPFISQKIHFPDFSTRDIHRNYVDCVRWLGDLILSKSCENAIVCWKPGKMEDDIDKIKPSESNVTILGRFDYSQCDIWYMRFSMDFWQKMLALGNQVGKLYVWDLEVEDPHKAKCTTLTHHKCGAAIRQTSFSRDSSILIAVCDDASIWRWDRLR

What was measured:
[1] = biological target: EZH2 (Homo sapiens, UniProt Q15910); experiment: EZH2 assay (rPRC2, 3H SAM methyl transfer to biotinylated oligonucleosomes); conditions: read-out: EZH2 IC50; rPRC2, 2 nM EZH2, biotinylated oligonucleosomes, 0.2 μM 3H SAM; top concentration 80 μM
Method: (§1) Assays were carried out by mixing rPRC2 together with biotinylated oligonucleosome substrates in the presence of the radio-labeled enzyme co-factor, S-adenosyl-L-methionine (^3H SAM) (Perkin Elmer) and monitoring the enzymatically mediated transfer of tritiated methyl groups from ^3H SAM to histone lysine residues. The amount of resulting tritiated methylhistone product was measured by first capturing the biotinylated oligonucleosomes in streptavidin (SAV) coated FlashPlates (Perkin Elmer), followed by a wash step to remove un-reacted ^3H SAM, and then counting on a TopCount NXT 384 well plate scintillation counter (Perkin Elmer). The final assay conditions for EZH2 were as follows: 50 mM Tris Buffer pH 8.5, 1 mM DTT, 69 μM Brij-35 detergent, 5.0 mM MgCl2, 0.1 mg/mL BSA, 0.2 μM ^3H SAM, 0.2 μM biotinylated oligonucleosomes, 3.6 μM H3K27me3 peptide and 2 nM EZH2.
(§2) Compound IC50 measurements were obtained as follows: Compounds were first dissolved in 100% DMSO as 10 mM stock solutions. Ten point dose response curves were generated by dispensing varying amounts of the 10 mM compound solution in 10 wells of the 384 well plate (Echo; Labcyte), pure DMSO was then used to backfill the wells to insure all wells have the same amount of DMSO. […]

[2] = biological target: Y641N EZH2 (Homo sapiens, UniProt Q15910, Y641N); experiment: Y641N EZH2 assay (as the EZH2 assay, with H3K27Me2 oligonucleosomes as substrate); conditions: read-out: Y641N EZH2 IC50; Y641N EZH2 mutant, reconstituted H3K27Me2 oligonucleosomes as substrate; top concentration 80 μM
Method: as §1, §2

SMILES	IC50 [1]	IC50 [2]
CCC(C)n1ccc(C(=O)NCc2c(C)cc(C)[nH]c2=O)cc1=O (stereo not shown)	> 80 µM	> 80 µM
CCCC(C)c1ccc(C(=O)NCc2c(C)cc(C)[nH]c2=O)cc1 (stereo not shown) [Compound I-10, N-((2-hydroxy-4,6-dimethylpyridin-3-yl)methyl)-4-(pentan-2-yl)benzamide]	< 1 µM	< 1 µM
